# Test results published in the supplement of paper PMC10077471.
# Over roughly 1,900 compounds, “excess over highest single agent (ExcessHSA) synergy score, 6x6 matrix” has its median near -83; the lowest 2% begin near -370. This is one part of the list.
# Tested on: NCI-H446
# Assay: excess over highest single agent (ExcessHSA) synergy score, 6x6 matrix; higher = less synergy (more negative = stronger synergy)
# Details: 72 h; CellTiter-Glo viability
row,SMILES,excess over highest single agent
1,Cc1n[nH]c2ccc(-c3cncc(OC[C@@H](N)Cc4c[nH]c5ccccc45)c3)cc12 + Cc1sc2c(c1C)C(c1ccc(Cl)cc1)=N[C@@H](CC(=O)OC(C)(C)C)c1nnc(C)n1-2 [NCGC00250412-19],-246
2,CC(C)(S)[C@@H](N)C(=O)O + Cc1sc2c(c1C)C(c1ccc(Cl)cc1)=N[C@@H](CC(=O)OC(C)(C)C)c1nnc(C)n1-2 [NCGC00250412-19],-143
3,Cc1cc(-c2nnc3n2CCCCC3)c(C)n1-c1ccccc1 + Cc1sc2c(c1C)C(c1ccc(Cl)cc1)=N[C@@H](CC(=O)OC(C)(C)C)c1nnc(C)n1-2 [NCGC00250412-19],-101
4,COc1cc(Nc2ncc(F)c(Nc3ccc4c(n3)NC(=O)C(C)(C)O4)n2)cc(OC)c1OC + Cc1sc2c(c1C)C(c1ccc(Cl)cc1)=N[C@@H](CC(=O)OC(C)(C)C)c1nnc(C)n1-2 [NCGC00250412-19],-11
5,CCC[C@H](Nc1nc(-c2ccc(NC(=O)NCC)c(OC)c2)ncc1C)c1cccnc1 + Cc1sc2c(c1C)C(c1ccc(Cl)cc1)=N[C@@H](CC(=O)OC(C)(C)C)c1nnc(C)n1-2 [NCGC00250412-19],-122
6,CC(C)(Sc1cc(C(C)(C)C)c(O)c(C(C)(C)C)c1)Sc1cc(C(C)(C)C)c(O)c(C(C)(C)C)c1 + Cc1sc2c(c1C)C(c1ccc(Cl)cc1)=N[C@@H](CC(=O)OC(C)(C)C)c1nnc(C)n1-2 [NCGC00250412-19],168
7,CS(=O)(=O)CCNCc1ccc(-c2ccc3ncnc(Nc4ccc(OCc5cccc(F)c5)c(Cl)c4)c3c2)o1 + Cc1sc2c(c1C)C(c1ccc(Cl)cc1)=N[C@@H](CC(=O)OC(C)(C)C)c1nnc(C)n1-2 [NCGC00250412-19],-336
8,N#CC(c1ccc(Cl)cc1)c1c(Cl)cc(-n2ncc(=O)[nH]c2=O)cc1Cl (stereo not drawn) + Cc1sc2c(c1C)C(c1ccc(Cl)cc1)=N[C@@H](CC(=O)OC(C)(C)C)c1nnc(C)n1-2 [NCGC00250412-19],-103
9,O=c1ccc2ccc(O)c(O)c2o1 + Cc1sc2c(c1C)C(c1ccc(Cl)cc1)=N[C@@H](CC(=O)OC(C)(C)C)c1nnc(C)n1-2 [NCGC00250412-19],-120
10,COc1cc(OC)c(C(=O)CCCN2CCCC2)c(OC)c1 + Cc1sc2c(c1C)C(c1ccc(Cl)cc1)=N[C@@H](CC(=O)OC(C)(C)C)c1nnc(C)n1-2 [NCGC00250412-19],-58
11,CC(=O)Nc1sc2c(c1-c1nc3ccccc3s1)CNC2 + Cc1sc2c(c1C)C(c1ccc(Cl)cc1)=N[C@@H](CC(=O)OC(C)(C)C)c1nnc(C)n1-2 [NCGC00250412-19],354
12,CC(C)(C)C(=O)OCOP(=O)(COCCn1cnc2c(N)ncnc21)OCOC(=O)C(C)(C)C + Cc1sc2c(c1C)C(c1ccc(Cl)cc1)=N[C@@H](CC(=O)OC(C)(C)C)c1nnc(C)n1-2 [NCGC00250412-19],-183
13,CN1CCC(=C2c3ccccc3CC(=O)c3sccc32)CC1 + Cc1sc2c(c1C)C(c1ccc(Cl)cc1)=N[C@@H](CC(=O)OC(C)(C)C)c1nnc(C)n1-2 [NCGC00250412-19],-365
14,COc1ccccc1N1CCN(CC(O)COc2cccc3ccccc23)CC1 (stereo not drawn) + Cc1sc2c(c1C)C(c1ccc(Cl)cc1)=N[C@@H](CC(=O)OC(C)(C)C)c1nnc(C)n1-2 [NCGC00250412-19],-45.4
15,CN1CCN(c2cc(C(=O)Nc3ccc4c(c3)-c3c(c(C(N)=O)nn3-c3ccc(F)cc3)CC4)c(Cl)cn2)CC1 + Cc1sc2c(c1C)C(c1ccc(Cl)cc1)=N[C@@H](CC(=O)OC(C)(C)C)c1nnc(C)n1-2 [NCGC00250412-19],-19.7
16,CC[C@H](CC[C@@H](C)[C@H]1CC[C@H]2[C@@H]3CC=C4C[C@@H](O)CC[C@]4(C)[C@H]3CC[C@]12C)C(C)C + Cc1sc2c(c1C)C(c1ccc(Cl)cc1)=N[C@@H](CC(=O)OC(C)(C)C)c1nnc(C)n1-2 [NCGC00250412-19],-193
17,O=C(O)CC[C@H]1CC[C@@](c2cc(F)ccc2F)(S(=O)(=O)c2ccc(Cl)cc2)CC1 + Cc1sc2c(c1C)C(c1ccc(Cl)cc1)=N[C@@H](CC(=O)OC(C)(C)C)c1nnc(C)n1-2 [NCGC00250412-19],-194
18,C/C=C1\NC(=O)[C@H]2CSSCC/C=C/[C@H](CC(=O)N[C@H](C(C)C)C(=O)N2)OC(=O)[C@H](C(C)C)NC1=O + Cc1sc2c(c1C)C(c1ccc(Cl)cc1)=N[C@@H](CC(=O)OC(C)(C)C)c1nnc(C)n1-2 [NCGC00250412-19],-38.7
19,CN(C)CC(C)(C)CNc1nn2c(-c3ccccc3)nnc2cc1C1CCC1 + Cc1sc2c(c1C)C(c1ccc(Cl)cc1)=N[C@@H](CC(=O)OC(C)(C)C)c1nnc(C)n1-2 [NCGC00250412-19],-2.17
20,C[C@@H]1[C@H](O)[C@@H](C)/C=C/C=C/C=C/C=C/C=C/C=C/C=C/[C@H](O[C@@H]2O[C@H](C)[C@@H](O)[C@H](N)[C@@H]2O)C[C@@H]2O[C@](O)(C[C@@H](O)C[C@@H](O)[C@H](O)CC[C@@H](O)C[C@@H](O)CC(=O)O[C@H]1C)C[C@H](O)[C@H]2C(=O)O + Cc1sc2c(c1C)C(c1ccc(Cl)cc1)=N[C@@H](CC(=O)OC(C)(C)C)c1nnc(C)n1-2 [NCGC00250412-19],-139
21,CCOC(=O)C(C)(C)Oc1ccc(Cl)cc1 + Cc1sc2c(c1C)C(c1ccc(Cl)cc1)=N[C@@H](CC(=O)OC(C)(C)C)c1nnc(C)n1-2 [NCGC00250412-19],258
22,CN(C)c1ccc(O)c2c1C[C@H]1C[C@H]3[C@H](N(C)C)C(=O)C(C(N)=O)=C(O)[C@@]3(O)C(=O)C1=C2O + Cc1sc2c(c1C)C(c1ccc(Cl)cc1)=N[C@@H](CC(=O)OC(C)(C)C)c1nnc(C)n1-2 [NCGC00250412-19],-85.8
23,CNc1nccc(-c2cccnc2Oc2cc(C(=O)Nc3cccc(C(F)(F)F)c3)ccc2C)n1 + Cc1sc2c(c1C)C(c1ccc(Cl)cc1)=N[C@@H](CC(=O)OC(C)(C)C)c1nnc(C)n1-2 [NCGC00250412-19],-146

# Two entries from above, with bars between the fields:
row | SMILES | excess over highest single agent
8 | N#CC(c1ccc(Cl)cc1)c1c(Cl)cc(-n2ncc(=O)[nH]c2=O)cc1Cl (stereo not drawn) + Cc1sc2c(c1C)C(c1ccc(Cl)cc1)=N[C@@H](CC(=O)OC(C)(C)C)c1nnc(C)n1-2 [NCGC00250412-19] | -103
9 | O=c1ccc2ccc(O)c(O)c2o1 + Cc1sc2c(c1C)C(c1ccc(Cl)cc1)=N[C@@H](CC(=O)OC(C)(C)C)c1nnc(C)n1-2 [NCGC00250412-19] | -120
